Assay results taken from doi:10.1101/031336.
Where a chain is given by its changes, count along the chain named. These are yes or no findings as the source states them, for the method shown. Binding seen in cells or lysates may run through a third protein. Some binding calls cover weakened binding; strength is not graded here. Tags and fused reporters may be left off the sequences shown.

Chains of the proteins cited; added tags and fusions are not shown.
UniProt P23330: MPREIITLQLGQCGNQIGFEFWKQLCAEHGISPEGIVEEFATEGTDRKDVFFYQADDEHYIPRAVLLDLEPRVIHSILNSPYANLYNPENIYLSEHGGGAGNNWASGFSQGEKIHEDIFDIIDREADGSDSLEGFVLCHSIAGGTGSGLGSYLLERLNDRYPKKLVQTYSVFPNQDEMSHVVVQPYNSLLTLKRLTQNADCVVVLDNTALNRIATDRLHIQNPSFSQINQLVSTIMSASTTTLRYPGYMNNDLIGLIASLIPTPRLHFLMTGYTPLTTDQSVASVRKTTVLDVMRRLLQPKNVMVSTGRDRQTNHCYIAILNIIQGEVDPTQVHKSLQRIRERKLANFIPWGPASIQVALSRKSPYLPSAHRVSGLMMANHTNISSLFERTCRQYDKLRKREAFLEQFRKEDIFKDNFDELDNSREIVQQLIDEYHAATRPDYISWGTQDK

Experiments:
Assay in all cases: co-IP
[1] = target: T1, 2xFlag-huWdr8 wild-type (human) (UniProt Q9P2S5)
T1 sequence: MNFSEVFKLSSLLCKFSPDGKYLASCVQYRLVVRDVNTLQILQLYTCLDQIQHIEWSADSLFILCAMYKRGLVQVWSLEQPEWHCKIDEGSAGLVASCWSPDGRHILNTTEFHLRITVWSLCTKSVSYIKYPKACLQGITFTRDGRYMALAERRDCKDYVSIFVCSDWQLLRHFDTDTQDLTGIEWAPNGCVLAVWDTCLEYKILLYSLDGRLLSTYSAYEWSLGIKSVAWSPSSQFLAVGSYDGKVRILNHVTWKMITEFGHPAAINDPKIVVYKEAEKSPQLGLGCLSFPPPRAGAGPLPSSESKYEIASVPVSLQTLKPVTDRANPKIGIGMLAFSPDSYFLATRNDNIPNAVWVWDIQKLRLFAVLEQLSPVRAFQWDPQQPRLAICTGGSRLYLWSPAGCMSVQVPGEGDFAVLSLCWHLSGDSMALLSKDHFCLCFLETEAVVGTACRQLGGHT

2xFlag-196/197AA (human) = target: T2, 2xFlag-196/197AA (human) (UniProt Q9P2S5)
T2 sequence: T1 sequence with W196A, D197A

2xFlag-359/360AA (human) = target: T3, 2xFlag-359/360AA (human) (UniProt Q9P2S5)
T3 sequence: T1 sequence with W359A, D360A

Measured: binding

γ-tubulin (from UniProt P23330 1-451)
binds: all assays above
